Here are results for nine compounds from US8426202B2, “Cell culture medium” (Cellca GmbH, priority 2005, dated 2013).

Values joined by “and” are separate entries in the source; they are usually repeats but may differ in a detail not shown here. Equal values may be shown once.

The series deals with CHO cell line that expresses an antibody. Nature of the series: Fed-batch experiment with the substances according to the invention (Example 2, Table 2). It is filed as cell-based, Chinese hamster. The source says: Feed took place at regular intervals.

With `O=C(O)C(O)C(O)C(=O)O` (stereo not drawn) [Tartaric acid], the Glucose is, setting by setting: (day 2, fed-batch) 4.37 g/L and 4.39 g/L; (day 5, fed-batch) 7.69 g/L and 7.34 g/L; (day 8, fed-batch) 11.22 g/L and 10.34 g/L. Further, the Lactate (day 2, fed-batch) was 0.32 g/L and 0.3 g/L; the Lactate (day 5, fed-batch) is 0.51 g/L and 0.5 g/L; the Lactate (day 8, fed-batch) is 0.69 g/L and 0.68 g/L.
With `O=C([O-])/C=C/C(=O)[O-].[Na+].[Na+]` [Sodium fumarate], the Glucose is, setting by setting: (day 2, fed-batch) 4.14 g/L and 4.17 g/L; (day 5, fed-batch) 6.79 g/L and 6.75 g/L; (day 8, fed-batch) 9.46 g/L and 9.32 g/L. For the same compound, the Lactate is 0.44 g/L (day 2, fed-batch); 1.13 g/L and 1.12 g/L (day 5, fed-batch); 1.39 g/L and 1.38 g/L (day 8, fed-batch).
Take `O=C(O)CCCCC(=O)O` [Adipic acid]: the Glucose is 4.2 g/L and 4.22 g/L (day 2, fed-batch); 7.33 g/L and 7.26 g/L (day 5, fed-batch); 10.89 g/L and 10.65 g/L (day 8, fed-batch). For the same compound, the Lactate reads like this: (day 2, fed-batch) 0.42 g/L; (day 5, fed-batch) 0.88 g/L; (day 8, fed-batch) 1.1 g/L and 1.12 g/L.
As to `CC(O)C(=O)[O-].[Na+]` (stereo not drawn) [Sodium lactate], the Glucose (day 2, fed-batch) is 4.32 g/L and 4.34 g/L; the Glucose (day 5, fed-batch) is 7.03 g/L and 7.02 g/L; the Glucose (day 8, fed-batch) was 9.52 g/L and 9.45 g/L. The Lactate (day 2, fed-batch) is 0.93 g/L; the Lactate (day 5, fed-batch) is 1.47 g/L and 1.45 g/L; the Lactate (day 8, fed-batch) is 1.75 g/L and 1.73 g/L.
In the case of `NCCC[C@H](N)C(=O)O` [Ornithine], the Glucose reads like this: (day 2, fed-batch) 4.24 g/L and 4.26 g/L; (day 5, fed-batch) 6.96 g/L and 6.9 g/L; (day 8, fed-batch) 9.85 g/L and 9.72 g/L. Besides, the Lactate was 0.46 g/L and 0.45 g/L (day 2, fed-batch); 1.03 g/L (day 5, fed-batch); 1.23 g/L (day 8, fed-batch).
For the compound `O=C([O-])CCC(=O)[O-].[Na+].[Na+]` [Sodium succinate], the Glucose is, setting by setting: (day 2, fed-batch) 3.91 g/L and 4.04 g/L; (day 5, fed-batch) 6.27 g/L and 6.63 g/L; (day 8, fed-batch) 8.44 g/L and 8.98 g/L. Also, the Lactate is 0.46 g/L and 0.47 g/L (day 2, fed-batch); 1.15 g/L and 1.18 g/L (day 5, fed-batch); 1.34 g/L and 1.42 g/L (day 8, fed-batch).
For the compound `O=C(O)CCC(=O)C(=O)O` [α-Keto-glutarate], the Glucose is, setting by setting: (day 2, fed-batch) 4.25 g/L and 4.26 g/L; (day 5, fed-batch) 7.15 g/L; (day 8, fed-batch) 9.75 g/L. In addition, the Lactate is 0.34 g/L and 0.33 g/L (day 2, fed-batch); 0.76 g/L (day 5, fed-batch); 1.06 g/L (day 8, fed-batch).
Take `O=C(O)CC(O)C(=O)O` (stereo not drawn) [Malic acid]: the Glucose reads like this: (day 2, fed-batch) 4.09 g/L and 4.1 g/L; (day 5, fed-batch) 6.6 g/L and 6.7 g/L; (day 8, fed-batch) 9.2 g/L and 9.38 g/L. In addition, the Lactate (day 2, fed-batch) worked out at 0.45 g/L; the Lactate (day 5, fed-batch) is 1.1 g/L and 1.09 g/L; the Lactate (day 8, fed-batch) came to 1.32 g/L.
Regarding `CC(=O)C(=O)[O-].[Na+]` [Sodium pyruvate], the Glucose reads like this: (day 2, fed-batch) 4.4 g/L; (day 5, fed-batch) 7.02 g/L; (day 8, fed-batch) 9.44 g/L. Besides, the Lactate is 0.27 g/L (day 2, fed-batch); 1.2 g/L (day 5, fed-batch); 1.8 g/L (day 8, fed-batch).
